Experimental data: PubChem BioAssay AID1224830 (NIAID, 2016)
Shown is one part, drawn at random, of about 18,000 reagents tested. About 2,900 of all reagents (16%) count as active. 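Calls are made per well; low scores hint the gene aids the LPS response, high scores that it dampens it.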 A number with no mark means an inactive call. Repeated entries: four replicate wells of each siRNA pool.

Screen: 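Regulators of TLR4 signalling towards TNF-alpha in macrophage-like cells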 (primary screen)
Cell system: human THP-1 monocytic leukaemia cells, TNF dual-luciferase reporter clone, PMA-differentiated to macrophage-like cells
Reagent: siRNA pool against human genes, 50 nM
Timing: LPS for 4 h, given about 3 days after siRNA transfection
Conditions: bacterial LPS (TLR4 ligand), 10 ng/ml
Measured: 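Ratio of firefly to renilla light, scaled to the plate median and expressed as a robust z-score per replicate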
Reading the numbers: TNF reporter robust z-score: higher = stronger TNF reporter response to LPS
Call rule: 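a well is active when its z-score exceeds 2.8 or falls below -1.5; control wells carry no call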

CACNG3 (GeneID 10368) — TNF reporter robust z-score = 0.11
CACNG3 (GeneID 10368) — TNF reporter robust z-score = -0.49
CACNG3 (GeneID 10368) — TNF reporter robust z-score = -0.59
CACNG3 (GeneID 10368) — TNF reporter robust z-score = -0.3
PKLR (GeneID 5313) — TNF reporter robust z-score = -1.53 (active)
PKLR (GeneID 5313) — TNF reporter robust z-score = -0.49
PKLR (GeneID 5313) — TNF reporter robust z-score = -1.08
PKLR (GeneID 5313) — TNF reporter robust z-score = 1.42

Called active (from the list above):
PKLR (GeneID 5313) — TNF reporter robust z-score = -1.53 (active)

Further entries follow:
DCST1 (GeneID 149095) — TNF reporter robust z-score = 1.43
DCST1 (GeneID 149095) — TNF reporter robust z-score = 1.88
DCST1 (GeneID 149095) — TNF reporter robust z-score = -0.21
DCST1 (GeneID 149095) — TNF reporter robust z-score = -1.07
CORIN (GeneID 10699) — TNF reporter robust z-score = -2.18 (active)
CORIN (GeneID 10699) — TNF reporter robust z-score = -0.47
CORIN (GeneID 10699) — TNF reporter robust z-score = 0.27
CORIN (GeneID 10699) — TNF reporter robust z-score = -0.58
LONRF1 (GeneID 91694) — TNF reporter robust z-score = 0.65
LONRF1 (GeneID 91694) — TNF reporter robust z-score = -0.27
LONRF1 (GeneID 91694) — TNF reporter robust z-score = -0.61
LONRF1 (GeneID 91694) — TNF reporter robust z-score = 0.06
